According to PubChem BioAssay AID330 (DTP/NCI, 2004):
The list shows only some results of the screen, not a fair sample: it is rich in T/C values a quarter to a half above the control, in often repeated tests (any T/C) and in doses without a T/C. Further doses and runs are listed elsewhere. T/C is the treated group as % of the vehicle group. Some doses have a count of surviving animals in place of a T/C: the source holds a T/C of zero for them, seemingly a mark for toxic or unscored doses. Some doses without a T/C left all or most animals alive at the check, yet need not have been tolerated: survival well below the control is almost never listed, so the zero probably covers shortened survival too. Counts of survivors are from the toxicity check (mostly the fifth day) where no day follows; animals may have died later. Schedule codes are those of the source, taken here to give the interval after Q, in days (D) or hours (H), and the number of doses after X.

Tested on: P388 leukemia ip, CD2F1 mice, survival T/C
Assay: NCI In Vivo Anticancer Drug Screen. Data for tumor model P388 Leukemia (intraperitoneal) in CD2F1 (CDF1) mice
Conditions: T/C endpoint: median survival time, higher T/C = longer survival

Row | Structure (SMILES) | survivor count (dose: 5.0 mg/kg/injection, schedule: Q01DX009 (ip), vehicle: other) | survivor count (dose: 400.0 mg/kg/injection, schedule: Q04DX003 (ip), vehicle: saline + Tween-80 + alcohol)
1 | CC1OC2CC(O)C1(O)C1=C2C(O)=C(C(N)=O)C(=N)C1=O (configuration not stated) | 6 of 6 | –
2 | O=P(c1ccccc1)(c1ccccc1)c1ccccc1.O=P(c1ccccc1)(c1ccccc1)c1ccccc1.O=P(c1ccccc1)(c1ccccc1)c1ccccc1.O=P(c1ccccc1)(c1ccccc1)c1ccccc1.[Cr+3].[O-][Cl+3]([O-])([O-])O | – | 0 of 6
